Measurements as given in the supplement of paper PMC10849652.
This is one part of the list.

Amino acid sequences for entries named in this document (tags omitted). A change or cut given only in a name is not applied to a line headed by its entry.
UniProt Q96AJ9: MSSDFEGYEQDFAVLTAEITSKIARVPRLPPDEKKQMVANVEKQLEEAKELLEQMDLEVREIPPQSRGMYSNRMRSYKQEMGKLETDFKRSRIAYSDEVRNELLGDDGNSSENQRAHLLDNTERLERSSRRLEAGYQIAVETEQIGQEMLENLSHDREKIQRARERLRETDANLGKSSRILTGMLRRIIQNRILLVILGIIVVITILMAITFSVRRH
UniProt Q9H967: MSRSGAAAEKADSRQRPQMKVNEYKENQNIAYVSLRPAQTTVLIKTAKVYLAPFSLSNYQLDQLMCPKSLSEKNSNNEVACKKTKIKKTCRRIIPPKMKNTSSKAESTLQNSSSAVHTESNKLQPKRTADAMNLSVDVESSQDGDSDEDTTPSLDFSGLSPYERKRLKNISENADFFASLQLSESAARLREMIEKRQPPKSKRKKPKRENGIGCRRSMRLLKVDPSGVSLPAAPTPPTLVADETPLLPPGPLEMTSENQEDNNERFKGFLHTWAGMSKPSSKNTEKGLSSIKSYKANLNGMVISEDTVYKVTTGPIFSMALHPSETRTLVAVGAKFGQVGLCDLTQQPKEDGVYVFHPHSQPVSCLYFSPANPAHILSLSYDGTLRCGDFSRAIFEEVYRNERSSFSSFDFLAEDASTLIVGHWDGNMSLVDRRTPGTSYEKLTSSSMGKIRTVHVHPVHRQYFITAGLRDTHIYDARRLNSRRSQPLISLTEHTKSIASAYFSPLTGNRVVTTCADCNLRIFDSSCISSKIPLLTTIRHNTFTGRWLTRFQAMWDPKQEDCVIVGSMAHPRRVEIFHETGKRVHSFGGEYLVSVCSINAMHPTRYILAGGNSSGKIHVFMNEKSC
UniProt Q96S15: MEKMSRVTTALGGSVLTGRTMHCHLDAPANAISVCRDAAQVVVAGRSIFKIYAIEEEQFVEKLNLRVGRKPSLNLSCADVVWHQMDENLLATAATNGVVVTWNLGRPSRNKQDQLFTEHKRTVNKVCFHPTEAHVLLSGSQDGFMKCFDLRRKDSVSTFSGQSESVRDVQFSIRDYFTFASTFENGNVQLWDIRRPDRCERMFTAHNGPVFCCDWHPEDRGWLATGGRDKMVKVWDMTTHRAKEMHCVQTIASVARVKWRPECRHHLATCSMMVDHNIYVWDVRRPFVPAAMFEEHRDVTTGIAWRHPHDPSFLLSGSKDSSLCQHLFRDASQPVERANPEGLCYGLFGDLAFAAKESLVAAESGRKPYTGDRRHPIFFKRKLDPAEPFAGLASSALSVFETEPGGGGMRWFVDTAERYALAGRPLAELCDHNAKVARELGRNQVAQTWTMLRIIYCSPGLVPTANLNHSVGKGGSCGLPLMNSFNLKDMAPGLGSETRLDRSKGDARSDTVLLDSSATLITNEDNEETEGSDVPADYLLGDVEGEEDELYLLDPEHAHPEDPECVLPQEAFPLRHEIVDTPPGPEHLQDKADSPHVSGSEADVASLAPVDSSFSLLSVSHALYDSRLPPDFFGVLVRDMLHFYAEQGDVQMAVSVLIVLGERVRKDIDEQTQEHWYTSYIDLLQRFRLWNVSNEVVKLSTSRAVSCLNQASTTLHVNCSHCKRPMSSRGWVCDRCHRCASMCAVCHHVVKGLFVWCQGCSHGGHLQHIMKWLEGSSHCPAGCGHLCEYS
UniProt Q15906, whole entry, looked up: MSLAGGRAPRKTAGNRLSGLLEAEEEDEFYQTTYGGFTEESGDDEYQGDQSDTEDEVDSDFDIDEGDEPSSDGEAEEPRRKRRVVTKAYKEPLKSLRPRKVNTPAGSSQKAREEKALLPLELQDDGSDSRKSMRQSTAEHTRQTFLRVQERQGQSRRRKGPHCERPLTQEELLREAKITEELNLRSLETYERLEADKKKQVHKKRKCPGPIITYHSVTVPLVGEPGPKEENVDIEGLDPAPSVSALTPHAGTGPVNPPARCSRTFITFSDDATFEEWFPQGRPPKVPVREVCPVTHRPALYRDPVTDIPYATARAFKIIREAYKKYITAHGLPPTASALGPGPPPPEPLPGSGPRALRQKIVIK
UniProt Q9HD64: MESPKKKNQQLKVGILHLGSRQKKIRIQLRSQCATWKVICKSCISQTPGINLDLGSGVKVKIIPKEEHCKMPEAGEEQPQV
UniProt Q9H977: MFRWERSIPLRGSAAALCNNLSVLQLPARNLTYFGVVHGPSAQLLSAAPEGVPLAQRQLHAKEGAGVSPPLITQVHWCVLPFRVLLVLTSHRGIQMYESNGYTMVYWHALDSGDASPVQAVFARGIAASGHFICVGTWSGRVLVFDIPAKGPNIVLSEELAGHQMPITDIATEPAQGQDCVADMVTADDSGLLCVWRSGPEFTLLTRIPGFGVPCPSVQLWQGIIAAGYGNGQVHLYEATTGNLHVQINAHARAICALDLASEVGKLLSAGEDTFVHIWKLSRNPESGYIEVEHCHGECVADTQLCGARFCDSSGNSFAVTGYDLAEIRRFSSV
UniProt Q8TBY9: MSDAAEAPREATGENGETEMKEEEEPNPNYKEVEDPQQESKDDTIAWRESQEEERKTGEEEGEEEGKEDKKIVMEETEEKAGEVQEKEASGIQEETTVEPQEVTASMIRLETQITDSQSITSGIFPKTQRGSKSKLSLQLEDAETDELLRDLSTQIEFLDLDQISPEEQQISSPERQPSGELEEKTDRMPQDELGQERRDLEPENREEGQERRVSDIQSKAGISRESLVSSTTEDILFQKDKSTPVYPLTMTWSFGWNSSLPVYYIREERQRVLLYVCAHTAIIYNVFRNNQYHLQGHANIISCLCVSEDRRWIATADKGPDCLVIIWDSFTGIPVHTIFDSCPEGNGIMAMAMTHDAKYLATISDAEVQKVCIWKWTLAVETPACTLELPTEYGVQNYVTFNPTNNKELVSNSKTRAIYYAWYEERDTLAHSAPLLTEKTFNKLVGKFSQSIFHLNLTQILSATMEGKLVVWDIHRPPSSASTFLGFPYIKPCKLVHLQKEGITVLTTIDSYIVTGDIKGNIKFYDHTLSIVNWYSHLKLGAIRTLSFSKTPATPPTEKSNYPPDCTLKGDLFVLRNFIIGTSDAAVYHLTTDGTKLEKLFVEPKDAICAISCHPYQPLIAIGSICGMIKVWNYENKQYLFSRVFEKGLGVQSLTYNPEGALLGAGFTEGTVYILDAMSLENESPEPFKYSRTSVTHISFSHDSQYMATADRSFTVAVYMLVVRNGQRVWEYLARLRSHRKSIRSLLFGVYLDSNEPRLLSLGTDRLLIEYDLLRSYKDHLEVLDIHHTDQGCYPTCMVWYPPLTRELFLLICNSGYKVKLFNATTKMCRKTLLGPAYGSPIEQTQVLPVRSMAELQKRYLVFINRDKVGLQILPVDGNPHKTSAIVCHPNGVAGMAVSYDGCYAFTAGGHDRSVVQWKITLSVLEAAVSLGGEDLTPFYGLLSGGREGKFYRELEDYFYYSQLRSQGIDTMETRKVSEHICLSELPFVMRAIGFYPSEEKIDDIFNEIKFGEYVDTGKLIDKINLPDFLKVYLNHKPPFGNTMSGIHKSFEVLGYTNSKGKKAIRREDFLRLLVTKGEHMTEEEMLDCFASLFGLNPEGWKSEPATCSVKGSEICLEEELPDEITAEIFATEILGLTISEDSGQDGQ
UniProt Q9NZC7: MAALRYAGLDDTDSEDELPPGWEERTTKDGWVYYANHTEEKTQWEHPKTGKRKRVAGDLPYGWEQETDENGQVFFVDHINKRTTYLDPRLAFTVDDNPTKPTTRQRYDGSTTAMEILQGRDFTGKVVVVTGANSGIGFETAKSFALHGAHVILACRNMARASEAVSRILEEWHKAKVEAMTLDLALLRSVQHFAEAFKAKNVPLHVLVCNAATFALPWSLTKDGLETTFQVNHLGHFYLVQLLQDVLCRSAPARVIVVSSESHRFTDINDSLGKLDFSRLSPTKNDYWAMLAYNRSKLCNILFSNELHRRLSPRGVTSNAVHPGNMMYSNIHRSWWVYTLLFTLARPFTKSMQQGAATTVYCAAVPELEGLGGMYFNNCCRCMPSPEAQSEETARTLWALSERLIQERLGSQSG
UniProt Q9HCS7: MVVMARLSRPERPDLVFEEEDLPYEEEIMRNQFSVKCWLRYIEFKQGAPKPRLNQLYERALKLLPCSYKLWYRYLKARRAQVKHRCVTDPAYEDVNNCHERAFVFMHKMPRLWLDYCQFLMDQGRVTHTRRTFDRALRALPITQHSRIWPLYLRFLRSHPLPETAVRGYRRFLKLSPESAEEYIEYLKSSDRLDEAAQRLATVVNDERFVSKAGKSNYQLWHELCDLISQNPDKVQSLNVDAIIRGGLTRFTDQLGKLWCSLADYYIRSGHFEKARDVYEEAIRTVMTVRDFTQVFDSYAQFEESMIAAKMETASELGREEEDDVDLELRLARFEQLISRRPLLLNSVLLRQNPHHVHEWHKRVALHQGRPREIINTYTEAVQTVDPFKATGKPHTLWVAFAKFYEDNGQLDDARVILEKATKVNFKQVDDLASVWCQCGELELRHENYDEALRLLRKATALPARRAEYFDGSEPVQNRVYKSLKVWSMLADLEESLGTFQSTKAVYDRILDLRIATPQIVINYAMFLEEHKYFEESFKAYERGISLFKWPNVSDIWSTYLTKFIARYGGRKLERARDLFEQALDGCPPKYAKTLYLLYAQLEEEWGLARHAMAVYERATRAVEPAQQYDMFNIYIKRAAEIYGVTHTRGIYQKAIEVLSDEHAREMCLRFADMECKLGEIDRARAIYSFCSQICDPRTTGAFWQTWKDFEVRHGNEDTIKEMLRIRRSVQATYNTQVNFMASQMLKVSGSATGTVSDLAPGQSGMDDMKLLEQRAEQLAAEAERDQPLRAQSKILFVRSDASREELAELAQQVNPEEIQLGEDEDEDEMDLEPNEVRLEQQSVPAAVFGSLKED
UniProt P57081: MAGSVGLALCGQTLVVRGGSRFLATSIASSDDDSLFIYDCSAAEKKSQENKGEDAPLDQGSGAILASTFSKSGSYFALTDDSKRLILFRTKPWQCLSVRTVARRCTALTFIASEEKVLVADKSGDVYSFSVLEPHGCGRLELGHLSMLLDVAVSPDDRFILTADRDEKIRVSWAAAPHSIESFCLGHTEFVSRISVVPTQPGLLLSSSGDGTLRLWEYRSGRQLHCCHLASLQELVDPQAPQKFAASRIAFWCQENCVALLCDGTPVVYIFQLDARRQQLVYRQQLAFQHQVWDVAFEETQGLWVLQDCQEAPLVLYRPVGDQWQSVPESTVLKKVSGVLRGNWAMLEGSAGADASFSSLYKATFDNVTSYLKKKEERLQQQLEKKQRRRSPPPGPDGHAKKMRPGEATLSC
UniProt Q9BRX9: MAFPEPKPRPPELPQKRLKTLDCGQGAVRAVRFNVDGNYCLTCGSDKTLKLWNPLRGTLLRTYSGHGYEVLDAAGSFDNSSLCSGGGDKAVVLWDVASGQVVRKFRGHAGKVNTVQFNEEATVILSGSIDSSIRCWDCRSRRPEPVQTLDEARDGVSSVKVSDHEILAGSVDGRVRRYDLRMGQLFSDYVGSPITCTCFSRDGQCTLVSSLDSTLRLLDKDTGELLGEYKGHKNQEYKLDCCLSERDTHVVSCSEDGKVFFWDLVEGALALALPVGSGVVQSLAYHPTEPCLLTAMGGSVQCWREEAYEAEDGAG
UniProt Q96JG6: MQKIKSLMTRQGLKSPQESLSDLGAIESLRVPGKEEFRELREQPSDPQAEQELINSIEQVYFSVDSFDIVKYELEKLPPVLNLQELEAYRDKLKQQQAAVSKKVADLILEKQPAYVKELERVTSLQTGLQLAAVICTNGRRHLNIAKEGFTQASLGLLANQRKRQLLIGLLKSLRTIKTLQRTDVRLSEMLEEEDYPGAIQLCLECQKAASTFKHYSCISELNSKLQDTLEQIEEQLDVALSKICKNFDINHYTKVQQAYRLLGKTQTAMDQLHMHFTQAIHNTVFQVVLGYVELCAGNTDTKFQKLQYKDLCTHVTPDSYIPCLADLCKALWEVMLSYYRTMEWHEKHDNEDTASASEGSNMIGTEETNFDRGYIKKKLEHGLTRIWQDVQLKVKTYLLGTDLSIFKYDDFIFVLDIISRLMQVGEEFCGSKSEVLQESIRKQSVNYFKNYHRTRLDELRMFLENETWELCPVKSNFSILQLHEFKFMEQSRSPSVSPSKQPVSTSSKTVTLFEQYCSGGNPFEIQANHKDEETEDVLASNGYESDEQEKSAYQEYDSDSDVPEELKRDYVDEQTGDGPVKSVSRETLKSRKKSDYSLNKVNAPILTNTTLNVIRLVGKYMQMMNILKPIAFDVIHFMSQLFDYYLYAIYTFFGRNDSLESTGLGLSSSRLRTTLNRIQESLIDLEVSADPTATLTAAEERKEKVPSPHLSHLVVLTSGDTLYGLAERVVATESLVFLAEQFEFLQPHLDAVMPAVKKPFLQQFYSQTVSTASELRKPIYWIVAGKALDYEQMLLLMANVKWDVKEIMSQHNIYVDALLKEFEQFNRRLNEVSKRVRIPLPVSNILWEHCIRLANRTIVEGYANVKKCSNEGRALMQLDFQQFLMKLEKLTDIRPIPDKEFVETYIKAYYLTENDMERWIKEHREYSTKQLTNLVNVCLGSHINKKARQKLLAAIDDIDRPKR

Assays:
Assay in all cases: log2 fold change, soluble protein after heating vs DMSO (PISA); higher = thermal stabilisation; K562 lysate, 10 uM; active = over 0.2 and 3.5 SD of the protein, either way, in both replicates (recomputed)
ibrutinib = compound: C=CC(=O)N1CCC[C@@H](n2nc(-c3ccc(Oc4ccccc4)cc3)c3c(N)ncnc32)C1 [ibrutinib]
Method in brief: (§1)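 Pellets of K562 cells were dounce-homogenised in PBS pH 7.4 with 1 mM MgCl2, and the crude extract was held at 1 mg/mL protein for a 30 min treatment with 10 μM compound. Aliquots were heated for 3 min over 48°C-58°C and pooled before NP-40 was added to 0.5% at 4°C. The supernatant from 21,000xg for 90 min was quantified by TMTpro 16plex LC-MS/MS with channel sums equalised. Values are reported from duplicates as log-two fold change in thermal stability relative to solvent controls.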

[1] = compound: CC(=O)c1cnc2ccc(-c3cc(Cl)c(O)c(Cl)c3)nc2c1N[C@H]1CC[C@H](CN(C)C)CC1
Method in brief: as §1

ralimetinib = compound: CC(C)(C)Cn1c(N)nc2ccc(-c3[nH]c(C(C)(C)C)nc3-c3ccc(F)cc3)nc21 [ralimetinib]
Method in brief: as §1

[2] = compound: CC(C)(O)CC(=O)NCCn1ccc2ncnc(Nc3ccc(Oc4cccc(C(F)(F)F)c4)c(Cl)c3)c21
Method in brief: as §1

[3] = compound: CC(C)C1=C2N=C(C=C(N2N=C1)NCC3=CC=CC=C3)NCCCCCCN
Method in brief: as §1

[4] = compound: CC1=C(C(CC(=O)N1)C2=CC=C(C=C2)C(F)(F)F)C(=O)NC3=C(C=C4C(=C3)C=NN4)F
Method in brief: as §1

[5] = compound: CC1=C(C2=C(C=C1)C(=O)C3=CC=CC=C3N2CCCN)C
Method in brief: as §1

[6] = compound: CC1=C(C=C(C=C1)NC(=O)C2=CC(=CC=C2)N(C)C)NC(=O)C3=CC=C(C=C3)O
Method in brief: as §1

[7] = compound: CC1=CC=C(C=C1)SC2=C3C=C(SC3=CN=C2)C(=O)N
Method in brief: as §1

[8] = compound: CC1=C(C=C(C=C1)NC(=O)C2=CC(=CC=C2)C(C)(C)C#N)NC3=CC4=C(C=C3)N=CN(C4=O)C
Method in brief: as §1

Measured: log2 fold change

XK (UniProt P51811)
inactive: ibrutinib 0.011 | [1] -0.358 | ralimetinib -0.028 | [2] -0.03 | [3] 0.012 | [4] 1.4 | [5] 0.086 | [6] 0.007 | [7] 0.137

XIRP2 isoform 8 (UniProt A4UGR9)
inactive: ibrutinib 0.134 | [1] -0.059 | ralimetinib 0.166 | [2] 0.037 | [4] 0.108 | [6] 0.055 | [7] 0.019

XIAP (UniProt P98170)
inactive: ibrutinib 0.025 | [1] -0.031 | ralimetinib -0.002 | [2] -0.04 | [3] -0.058 | [4] 0.034 | [5] -0.017 | [8] 0.034 | [6] 0.021 | [7] -0.034

VTI1A (UniProt Q96AJ9)
inactive: ibrutinib 0.068 | [1] 0.001 | ralimetinib -0.003 | [2] 0.002 | [3] 0.017 | [4] -0.026 | [5] -0.001 | [8] 0.013 | [6] 0.01 | [7] -0.054

WDFY2 (UniProt Q96P53)
inactive: [3] 0.005 | [5] -0.104

Copied from the listing (3 entries):
XIAP (UniProt P98170)
inactive: ibrutinib 0.025 | [1] -0.031 | ralimetinib -0.002 | [2] -0.04 | [3] -0.058 | [4] 0.034 | [5] -0.017 | [8] 0.034 | [6] 0.021 | [7] -0.034

VTI1A (UniProt Q96AJ9)
inactive: ibrutinib 0.068 | [1] 0.001 | ralimetinib -0.003 | [2] 0.002 | [3] 0.017 | [4] -0.026 | [5] -0.001 | [8] 0.013 | [6] 0.01 | [7] -0.054

WDFY2 (UniProt Q96P53)
inactive: [3] 0.005 | [5] -0.104

Later entries

WDR34 (UniProt Q96EX3)
inactive: ibrutinib 0.011 | ralimetinib 0.155 | [2] -0.051 | [3] -0.049 | [4] -0.064 | [5] -0.057 | [8] -0.06 | [6] 0.017

XBP1 isoform 2 (UniProt P17861)
inactive: ralimetinib -0.082 | [2] -0.083 | [3] -0.022 | [6] -0.091

WDR76 (UniProt Q9H967)
inactive: ralimetinib 0.084 | [2] 0.061 | [4] 0.058 | [5] -0.052 | [8] 0.028 | [6] 0.05

WSB1 (UniProt Q9Y6I7)
inactive: ralimetinib 0.08 | [2] -0.006 | [5] -0.037 | [6] -0.028

VWDE (UniProt Q8N2E2)
inactive: ibrutinib 0.001 | [1] -0.059 | ralimetinib 0.044 | [2] -0.036 | [3] -0.046 | [4] -0.003 | [5] 0.017 | [8] 0.032 | [6] 0.027 | [7] -0.074

WDR24 (UniProt Q96S15)
inactive: ibrutinib -0.044 | [1] -0.016 | ralimetinib 0.025 | [2] -0.022 | [3] 0.041 | [4] 0.055 | [5] -0.011 | [8] 0.033 | [6] -0.034 | [7] 0.021

WDR43 (UniProt Q15061)
inactive: ibrutinib -0.004 | [1] 0 | ralimetinib 0.083 | [2] -0.015 | [3] 0.002 | [4] 0.003 | [5] 0.003 | [8] 0.003 | [6] 0.028 | [7] -0.027

VPS72 (UniProt Q15906)
inactive: [1] 0.016 | ralimetinib 0.046 | [2] -0.06 | [3] -0.028 | [4] -0.098 | [5] 0.005 | [8] 0 | [6] -0.01 | [7] -0.038

VPS33B (UniProt Q9H267)
inactive: ibrutinib -0.011 | [1] -0.012 | ralimetinib -0.002 | [2] -0.012 | [3] -0.034 | [4] 0.033 | [5] 0.034 | [8] -0.006 | [6] 0.012 | [7] 0.009

WDHD1 (UniProt O75717)
inactive: ibrutinib 0.024 | [1] -0.002 | ralimetinib 0.005 | [2] -0.01 | [3] -0.027 | [4] 0.007 | [5] -0.002 | [8] -0.002 | [6] 0.016 | [7] -0.005

VSIR (UniProt Q9H7M9)
inactive: ibrutinib 0.058 | [1] 0.036 | ralimetinib -0.032 | [2] -0.033 | [3] 0.025 | [5] -0.017 | [8] -0.158 | [6] 0.021 | [7] -0.002

VPS35, A0A1W2PP10
inactive: ibrutinib -0.081 | [1] 0.001 | [3] -0.05 | [4] -0.061 | [8] 0.204 | [7] -0.133

WDR19 (UniProt Q8NEZ3)
inactive: ibrutinib 0.054 | [1] -0.064 | [4] -0.012 | [8] 0.376 | [7] 0.174

WAS (UniProt P42768)
inactive: ibrutinib -0.06 | [3] -0.01 | [4] 0.071 | [5] 0.143

WDR46, A0A0G2JJL1
inactive: ibrutinib -0.052 | [1] 0.02 | ralimetinib 0.102 | [2] -0.096 | [4] 0.026 | [5] -0.031 | [6] 0.028 | [7] 0.056

WARS1 (UniProt G3V5U1)
inactive: ibrutinib -0.042 | [1] -0.038 | [4] -0.217 | [7] -0.07

XAGE1A (UniProt Q9HD64)
inactive: ibrutinib -0.079 | [4] 0.121

VLDLR (UniProt P98155)
inactive: ibrutinib -0.041 | ralimetinib 0.079 | [2] -0.083 | [3] -0.027 | [8] 0.131 | [6] 0.012

WARS1 (UniProt G3V456)
inactive: [1] -0.009 | [7] 0.128

WASHC3 (UniProt Q9Y3C0)
inactive: ibrutinib 0.004 | [1] -0.014 | ralimetinib 0.037 | [2] -0.022 | [3] -0.005 | [4] 0.017 | [5] -0.012 | [8] -0.004 | [6] -0.008 | [7] 0.014

WDR54 isoform 4 (UniProt Q9H977)
inactive: ibrutinib -0.043 | [5] -0.001 | [8] -0.023

WDR66 (UniProt Q8TBY9)
inactive: ralimetinib -0.04 | [2] -0.276 | [6] -0.062

WWOX (UniProt Q9NZC7)
inactive: ralimetinib 0.011 | [2] 0.051 | [5] -0.026 | [8] 0.232 | [6] 0.045

XAB2 (UniProt Q9HCS7)
inactive: ibrutinib -0.089 | [1] -0.048 | ralimetinib -0.002 | [2] -0.051 | [3] -0.011 | [4] 0.014 | [5] -0.032 | [8] 0.013 | [6] 0.03 | [7] -0.024

WDR4 (UniProt P57081)
inactive: ibrutinib 0.022 | [1] -0.031 | ralimetinib 0 | [2] 0 | [3] -0.01 | [4] -0.032 | [5] -0.037 | [8] 0.036 | [6] -0.015 | [7] 0.003

WDR53 (UniProt Q7Z5U6)
inactive: ibrutinib -0.027 | ralimetinib 0.027 | [2] -0.033 | [3] -0.035 | [4] -0.039 | [5] 0.008 | [8] 0.01 | [6] 0.002

VPS29 (UniProt Q9UBQ0)
inactive: [1] -0.062 | ralimetinib 0.052 | [2] -0.294 | [3] 0.399 | [5] 0.067 | [8] -0.004 | [6] -0.11 | [7] -0.068

WDR83 (UniProt Q9BRX9)
inactive: ibrutinib -0.098 | [1] 0.067 | ralimetinib -0.006 | [2] -0.004 | [4] -0.333 | [5] 0.019 | [6] 0.131 | [7] -0.01

WDR35 (UniProt Q9P2L0)
inactive: ralimetinib 0.002 | [2] -0.37 | [6] 0.283

WDR7 (UniProt Q9Y4E6)
inactive: ibrutinib 0.067 | [1] 0.04 | ralimetinib 0.063 | [2] -0.075 | [3] -0.03 | [4] -0.005 | [5] -0.013 | [8] 0.037 | [6] -0.06 | [7] -0.013

VRK1 (UniProt Q99986)
inactive: ibrutinib 0.008 | [1] 0.035 | ralimetinib 0.122 | [2] 0.005 | [3] -0.008 | [4] -0.013 | [5] 0.007 | [8] -0.015 | [6] 0.018 | [7] 0.003

VPS50 (UniProt Q96JG6)
inactive: ibrutinib -0.057 | [1] 0.013 | ralimetinib -0.006 | [2] 0.007 | [3] -0.078 | [4] 0.013 | [5] 0.027 | [8] 0.061 | [6] -0.001 | [7] -0.004

WAC isoform 5 (UniProt Q9BTA9)
inactive: ralimetinib 0.059 | [2] -0.145 | [3] -0.038 | [5] 0.127 | [6] 0.096
